Our source for the binding values is publication doi:10.1101/2024.12.16.628704.

The chains behind the UniProt entries cited, without tags or fusion partners. Where a name states a change or a piece, a line headed by the entry shows the natural chain unless it says otherwise. Residues count along the entry.
UniProt Q9NNX6: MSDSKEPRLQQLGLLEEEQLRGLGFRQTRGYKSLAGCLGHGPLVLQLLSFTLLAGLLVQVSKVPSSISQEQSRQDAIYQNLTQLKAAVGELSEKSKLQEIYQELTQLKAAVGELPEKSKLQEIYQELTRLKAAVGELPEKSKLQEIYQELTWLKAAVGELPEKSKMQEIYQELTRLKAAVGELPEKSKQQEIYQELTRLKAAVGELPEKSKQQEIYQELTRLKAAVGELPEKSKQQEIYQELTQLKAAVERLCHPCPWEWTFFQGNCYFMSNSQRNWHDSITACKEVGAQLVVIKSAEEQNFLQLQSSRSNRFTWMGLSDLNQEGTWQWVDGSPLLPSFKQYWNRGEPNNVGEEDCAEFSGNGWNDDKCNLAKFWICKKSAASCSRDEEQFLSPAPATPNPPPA
UniProt P31994, residues 43-217: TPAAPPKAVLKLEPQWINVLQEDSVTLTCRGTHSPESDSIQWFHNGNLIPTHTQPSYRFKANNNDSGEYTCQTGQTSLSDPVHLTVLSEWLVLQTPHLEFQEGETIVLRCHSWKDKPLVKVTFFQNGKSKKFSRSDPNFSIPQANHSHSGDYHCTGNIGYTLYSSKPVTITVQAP

The assay deals with DC-SIGN covalently coupled to an SPR chip (UniProt Q9NNX6). Kind of assay: SPR.

No constants are given. Whether binding was seen depends on the method and setting. A result given as binding can be weak or reduced; the word gives no strength.

On to “recombinant FcγRIIB ectodomain (from UniProt P31994 43-217) (domain or fragment)”, for which the binding entry was “binds”.
